Results as given in PubChem BioAssay AID624297 (National Center for Advancing Translational Sciences (NCATS), 2012).
Among all 340,000 compounds or so, about 6,200 (1.8%) were called active. This list was built around the results that the source calls inconclusive (neither active nor inactive); the mix of calls is not that of the screen. Calls come from the whole dose curve; as a rule, active = well fitted activation curve with a large enough effect; inconclusive = small, poorly fitted or top-dose-only effect; inactive = no such curve, though single readings can be large or run the other way. A potency beside an inconclusive call is a rough fit, not a confirmed value.

assay: A quantitative high throughput screen for small molecules that induce DNA re-replication in SW480 colon adenocarcinoma cells.; note: nearly all actives have a fitted effect of over 55% in size; for re-replication activation: % of control where 0% means no effect; conditions: Hoechst DNA content imaging, 48 h; re-replication activation: at 46.1 µM (top of the series) unless noted
Procedure, shortened: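 DNA re-replication was detected as more nuclei of elevated Hoechst intensity after 48 hr exposure to compound (23 nL pinned per well of 250 cells).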
Potency is the fitted concentration of half-maximal effect.

SMILES | Potency | re-replication activation
O=C(CCCn1nnc2ccccc2c1=O)N[C@H](C(=O)O)c1ccccc1 | inconclusive: 23.1 µM [activator, single point] | –
N#CC(C#N)=C1C=CC=CN1/C(=C\c1ccco1)C(=O)c1ccc(Br)cc1 | active: 4.61 µM | –
COc1ccccc1C1c2[nH]c3ccccc3c2C[C@H]2C(=O)N(C3CCN(Cc4ccccc4)CC3)CC(=O)N12 (stereo partly specified) | inconclusive: 23.1 µM [activator, single point] | –
CCOC(=O)c1cc2cc([N+](=O)[O-])ccc2oc1=O | inconclusive: 29.1 µM [activator, single point] | –
O=C(Cn1ncc2c([nH]c3ccccc32)c1=O)N1CCN(c2ccccn2)CC1 | – | inactive: -22.2%
O=C(COc1ccccc1)NC(=S)Nc1cccc2cc(O)ccc12 | inconclusive: 20.6 µM [activator, single point] | –
Cc1c(C(=O)N2CCCCCC2)c(S(=O)(=O)Nc2ccccc2F)c(C)n1C | inconclusive: 0.82 µM [activator, full curve, poor fit] | –
CC1CCCN(CCS(=O)(=O)c2ccccc2)C1 (stereo unspecified) | – | inactive: 6.41%
CCN(CC)CCCNC(=O)Cn1cnc2ccc(S(=O)(=O)N3CCC(C)CC3)cc2c1=O | inconclusive: 14.6 µM [activator, partial curve, poor fit] | –
O=C([C@@H]1CCCN1C(=O)c1cccs1)N1CCN(S(=O)(=O)c2cccc(F)c2)CC1 | – | inactive: -9.52%
OCC1(CCOc2ccccc2)CCN(Cc2ccc3cccc(F)c3n2)CC1 | inconclusive: 32.6 µM [activator, single point] | –
CCC(C)NC(=O)c1nn(C)c(=O)c2ccccc12 (stereo unspecified) | inconclusive: 0.116 µM [activator, full curve, poor fit] | –
O=C1CSC(=S)N1/N=C/c1ccc(O)c(O)c1O | inconclusive: 3.66 µM [activator, single point] | –
N=c1c(S(=O)(=O)c2ccccc2)cc2c(=O)n3ccccc3nc2n1CCCN1CCOCC1 | inconclusive: 0.206 µM [activator, full curve, poor fit] | –
N#Cc1cc2c(=O)n3ccccc3nc2n(Cc2cccnc2)c1=O | active: 2.31 µM | –
COc1cccc(/C=N/NC(=S)Nc2cccnc2)c1 | inconclusive: 18.4 µM [activator, single point] | –
COc1cc(SC)ccc1C(=O)N(Cc1ccccc1)c1ccccc1 | inconclusive: 25.9 µM [activator, single point] | –
COC(=O)c1sc(N/N=C/c2ccc(C(C)C)cc2)nc1C | inconclusive: 29.1 µM [activator, single point] | –
O=C(O)Cc1ccc(NC(=O)c2cnccn2)cc1 | – | inactive: -11.7%
CCCCCN(C(=O)CCC(=O)OCc1ccccc1C)c1c(N)n(CCCC)c(=O)[nH]c1=O | inconclusive: 16.4 µM [activator, single point] | –
O=C(N/N=C/c1ccccc1C(=O)O)c1ccccc1Br | – | inactive: 1.15%
COc1cccc(/C=N/NC(=O)C[n+]2ccccc2)c1OC | – | inactive: -4.34%
Cc1cccc(NC(=O)CNC(=O)COc2ccc(C(=O)c3ccc(F)cc3)cc2)c1C | inconclusive: 22.4 µM [activator, single point] | –
NC(=O)c1cc2ccccc2o/c1=N\NC(=O)c1ccco1 | – | inactive: -11.6%

SMILES | Potency | re-replication activation
N#C/C(=C\c1ccccc1Cl)C(=O)Nc1ccccn1 | inconclusive: 13 µM [activator, partial curve, poor fit] | –
COc1ccc([N+](=O)[O-])cc1NC(=O)CCN1CCN(C)CC1 | inconclusive: 3.66 µM [activator, full curve, poor fit] | –
C[C@@H](C(=O)Nc1ccc(SC(F)F)cc1)N1C(=O)C2CCCCC2C1=O (stereo partly specified) | – | inactive: -1.91%
COc1ccc(-n2cc(CNC3CCOCC3)c(-c3cccc(F)c3)n2)cc1 | inconclusive: 18.4 µM [activator, single point] | –
COc1cc(NC(=O)C2CC(c3c(F)cccc3Cl)=NO2)cc(OC)c1OC (stereo unspecified) | – | inactive: -2.23%
CN(C)C(=O)c1cn(-c2ccccc2)nc1-c1cc2ccccc2o1 | – | inactive: 10.2%
CCCc1nc2ccccc2c(=O)n1NC(=O)c1c(O)c2cccc3c2n(c1=O)CCC3 | – | inactive: 2.82%
CCCCOC(=O)c1ccc(NC(=S)N2CCN(c3ncc4c(=O)c(C(=O)O)cn(CC)c4n3)CC2)cc1 | inconclusive: 29.1 µM [activator, single point] | –
CCN(CC)S(=O)(=O)c1ccc(O)c(NS(=O)(=O)c2ccccc2F)c1 | – | inactive: 2.39%
COCCn1c(SCc2cccc(F)c2)nc2cc(C(=O)OC)ccc2c1=O | – | inactive: -25.5%
CCOC(=O)COc1ccc(/C=C/[N+](=O)[O-])c(OCC(=O)OCC)c1 | inconclusive: 3.26 µM [activator, full curve, poor fit] | –
C/C(=N\NC(=O)c1ccccc1Cl)c1ccccn1 | inconclusive: 29.1 µM [activator, single point] | –
CCCCN1CCNC[C@H]1Cc1ccc(O)cc1 | – | inactive: -0.716%
O=C(NC1CCCCC1)C1Cc2ccccc2CN1S(=O)(=O)c1ccc(F)cc1 (stereo unspecified) | inconclusive: 29.1 µM [activator, single point] | –
CC(C)(C)CC(=O)N1CCC(c2nc3c(nnn3Cc3c(F)cccc3Cl)c(=O)[nH]2)CC1 | inconclusive: 15.8 µM [activator, partial curve, poor fit] | –
C/C(=N/NC(=O)CN1CCN(S(=O)(=O)c2ccc(C)cc2)CC1)c1ccco1 | – | inactive: -19.1%
COc1ccccc1NC(=O)CSc1nnc(C2CCCCC2)n1-c1ccccc1 | inconclusive: 29.1 µM [activator, single point] | –
CCOC(=O)c1[nH]nc(-c2cc(CC)c(O)cc2O)c1-c1cscn1 | – | inactive: 16.9%
C=CCNC(=S)Nc1ccc2cn[nH]c2c1 | inconclusive: 16.4 µM [activator, single point] | –
Cc1ccc(-c2nc(SC(C)C(=O)c3c(N)n(C)c(=O)n(C)c3=O)n[nH]2)cc1 (stereo unspecified) | – | inactive: 2.32%
CC(C)c1ccc(/C=c2\sc3n(c2=O)C(N)=C(C#N)C(c2ccc(C(C)C)cc2)C=3C(N)=O)cc1 (stereo unspecified) | inconclusive: 7.31 µM [activator, partial curve, poor fit] | –
c1ccc2sc(SSc3nc4ccccc4s3)nc2c1 | – | inactive: -0.699%
Cc1cc(C)c(NC(=O)CCN2CCN(Cc3ccccc3)CC2)c(C)c1 | inconclusive: 29.1 µM [activator, single point] | –
Cc1cccc(/C=C/c2nc3ccccc3c(=O)n2Cc2ccccc2)c1 | inconclusive: 18.4 µM [activator, single point] | –

Entries above that contain a nitro group on carbon, in the order listed:
SMILES | Potency | re-replication activation
CCOC(=O)c1cc2cc([N+](=O)[O-])ccc2oc1=O | inconclusive: 29.1 µM [activator, single point] | –
COc1ccc([N+](=O)[O-])cc1NC(=O)CCN1CCN(C)CC1 | inconclusive: 3.66 µM [activator, full curve, poor fit] | –
CCOC(=O)COc1ccc(/C=C/[N+](=O)[O-])c(OCC(=O)OCC)c1 | inconclusive: 3.26 µM [activator, full curve, poor fit] | –

More compounds follow:

SMILES | Potency | re-replication activation
COc1ccc(NC(=O)CN(C)C(=O)c2cc(C)on2)cc1 | inconclusive: 14.6 µM [activator, single point] | –
CCCn1c(=S)[nH]c2cc(C(=O)N3CCN(c4ccccc4OC)CC3)ccc2c1=O | inconclusive: 32.6 µM [activator, single point] | –
Cc1ccc(CNS(=O)(=O)c2cc(F)ccc2CN2C(=O)c3cccnc3C2=O)o1 | inconclusive: 29.1 µM [activator, single point] | –
CCOC(=O)[C@H]1[C@H]2COc3ccc(Br)cc3[C@H]2N2C(=O)CN(Cc3ccc(Cl)cc3)C(=O)[C@@]12C | inconclusive: 0.0052 µM [activator, full curve, poor fit] | –
NNC(=O)Cn1c(-c2ccccc2)cc2ccccc21 | – | inactive: -0.541%
O=C(c1cc(-c2cccc(Cl)c2)nc2ccccc12)N1CCN(c2ccccn2)CC1 | inconclusive: 29.1 µM [activator, single point] | –
O=C(Cc1ccc(Cl)cc1)Oc1cccc2cccnc12 | inconclusive: 29.1 µM [activator, single point] | –
O=C(Nc1cnn(Cc2ccc(Cl)cc2)c1)c1cccs1 | inconclusive: 16.4 µM [activator, single point] | –
Cc1scc(C(=O)NNC(=S)NCC2CCCO2)c1-c1ccccc1 (stereo unspecified) | – | inactive: -0.487%
CCNC(=S)NNC(=O)c1csc2ccccc12 | – | inactive: -1.99%
CC(C)C(=O)N1CCC(c2nc(-c3ccc(S(=O)(=O)N4CCCC4)cc3)no2)CC1 | – | inactive: -4.74%
COC(=O)Nc1nc2ccc(C(=O)c3ccccc3)cc2[nH]1 | active: 0.286 µM | –
O=C(CCCCCCCCC(=O)N1CCCCC1)N1CCCCC1 | inconclusive: 23.1 µM [activator, partial curve, poor fit] | –
NC(=O)c1nsc(C(=O)N(CC(=O)NC2CCCC2)c2cccc(C(F)(F)F)c2)c1N | inconclusive: 23.1 µM [activator, partial curve, poor fit] | –
O=C(NCCc1ccccc1)c1ccco1 | – | inactive: 3.26%
c1ccc(OCCn2c(-c3ccco3)nc3ccccc32)cc1 | – | inactive: 10%
CC(=O)c1c(C)[nH]c(C(=O)COc2cc(C)cc(C)c2)c1C | – | inactive: 1.06%
Cc1nc2c(sc(=S)n2Cc2ccco2)c(=O)n1CC(=O)Nc1ccccc1 | inconclusive: 29.1 µM [activator, single point] | –
CCCn1c(SCC(=O)Nc2nc3c(s2)CCCC3)nc2c1c(=O)n(C)c(=O)n2C | – | inactive: -15.9%
COc1ccc(CNC(=O)Cc2ccc(-c3ccccc3)cc2)cc1OC | inconclusive: 20.6 µM [activator, single point] | –
N#Cc1c(Nc2ccc(F)cc2)sc(C(=O)c2ccccc2)c1N | inconclusive: 6.51 µM [activator, partial curve, poor fit] | –
Cc1cc(C)c(S(=O)(=O)/N=C2\C=C(Nc3ccc(C(=O)O)cc3)C(=O)c3ccccc32)c(C)c1 | inconclusive: 25.9 µM [activator, single point] | –
Cc1ccc(CCNC(=O)c2nn(C)c3c2CS(=O)(=O)c2ccccc2-3)cc1 | inconclusive: 16.4 µM [activator, partial curve, poor fit] | –
